# Assay results reported in the supplement of paper PMC5949888.
# ± gives the standard deviation of the averaged measurements. Most values lie at the floor of the assay. Slopes are relative: functional sequences can read slightly below zero.
# Tested on: Saccharomyces cerevisiae PS128 hsf1 delta, HSF1(1-493) fusion
# Experiment: growth estimate (transactivation domain function in HSF1 fusion, heat-shock survival) (a.u. (slope of normalised read count over time)); higher = stronger growth at 37°C, i.e. more transactivation activity
# Conditions: library: random library
row,Substance,growth estimate
1,LTSRRGLDPMGTGSCD,< -0.25
2,LTSS,< -0.25
3,LTSTDGPTTMHSGSPCAAAF,< -0.25
4,LTTDEIYPC,< -0.25
5,LTTVVRRRRTRR,-0.246
6,LTVRKGSFDTRGCCMDTCLG,< -0.25
7,LTVRLKRVDTRV,< -0.25
8,LTVRWLRSDSGGQASVTAGH,-0.248
9,LTVSS,< -0.25
10,LTVVGFPGNLLGM,< -0.25
11,LTYGTSSVLSGALIGDDEGR,< -0.25
12,LTYRSV,< -0.25
13,LVADHGTRSSGRQQQPHVSP,< -0.25
14,LVAFQMVNVLKSSS,< -0.25
15,LVAMGTLLTSQFCNRWALAT,< -0.25
16,LVAQLNTCFMSPSCLV,< -0.25
17,LVATWAPRRAMTPNGVVETN,< -0.25
18,LVAYAMRVGAVLREVNLSWF,< -0.25
19,LVCGSQYSQYGFPMFCLNTA,< -0.25
20,LVCTTVSAV,< -0.25
21,LVCWVGERMLVMDFIFSITP,< -0.25
22,LVDAVRYRAQR,-0.246
23,LVDLGRAERALSSITSTFTC,< -0.25
24,LVDRLKGVSIR,< -0.25

row,Substance,growth estimate
1,LVDYIKIA,< -0.25
2,LVEVSF,< -0.25
3,LVFGPLLSRTRYVGGPHS,< -0.25
4,LVFHAPRSIARAPWSTSLPS,0.0112
5,LVFPVHLGLAPDGTMLL,< -0.25
6,LVFPWYQKHKMMGISTSNTR,< -0.25
7,LVGGIRS,< -0.25
8,LVGKEVGRRAGLLDWLPIRA,< -0.25
9,LVGKMSPSSKVAKEKVRRLN,-0.243
10,LVGLSLFRSEDFIRA,< -0.25
11,LVGQRLVLYPVGHVRYLDTG,< -0.25
12,LVGRRNPRTPRDPRADQ,-0.243
13,LVGST,< -0.25
14,LVGVPWIAWIPSVVATTLVG,< -0.25
15,LVGWRGQHTLVSFAQPQVIS,< -0.25
16,LVH,< -0.25
17,LVHLAETIALQISVGIRPVC,< -0.25
18,LVIEGLSVAPIEIRHCRPAA,< -0.25
19,LVIEPFYWITSGQHSH,< -0.25
20,LVILKKAGRIRRSFGNYACA,< -0.25
21,LVKPLAHCKRIWPTHSA,< -0.25
22,LVLHKGLRAPLA,< -0.25
23,LVLLKGFRQQPIYS,< -0.25
24,LVLRLYTERQQLGWKPGHSV,< -0.25

row,Substance,growth estimate
1,LVLSGGVWLIARTDLGDSGP,< -0.25
2,LVMLTCQVRSNSSSAVRGKL,< -0.25
3,LVMRS,< -0.25
4,LVMSVTLRA,< -0.25
5,LVNAYRSGCPPCMGTCWHKG,< -0.25
6,LVNLGDRYLAHLGAVVSVFV,< -0.25
7,LVNNSMVTSGGLPSMQRSV,< -0.25
8,LVNSISN,< -0.25
9,LVPCNNSLV,< -0.25
10,LVPDLAYFRAGARPHNVSGA,< -0.25
11,LVPLCLYMHEANN,< -0.25
12,LVPTC,0.207
13,LVPVRQRPTISLKEEASTPL,< -0.25
14,LVPVSRDSQLTSTI,-0.149
15,LVQPPRVPCLRHPLVLATV,< -0.25
16,LVRATRPDPFPTPPRRLRTN,< -0.25
17,LVRCKIVSR,< -0.25
18,LVRCVGPIGVPGSLLLPTT,< -0.25
19,LVRKDLHRGSLS,< -0.25
20,LVRLPFLCGGNCFAAIVTCQ,< -0.25
21,LVRRDQMFIV,< -0.25
22,LVRSASL,< -0.25
23,LVRSELTSCASVIERRNLLP,< -0.25
24,LVRSWDVGERVTTRECLYTS,< -0.25

row,Substance,growth estimate
1,LVSAR,< -0.25
2,LVSCVRVGCGSG,< -0.25
3,LVSPGPSLTVEEDLFDRREQ,< -0.25
4,LVSPRGRTVTISERTGNNLA,< -0.25
5,LVSVRRSTRFALMKEVSPVG,< -0.25
6,LVSVSFVF,< -0.25
7,LVTFVAAVPECKSLMAE,< -0.25
8,LVTLYRTDVNCLDRSGHHVH,< -0.25
9,LVTWGGGLRLLIIGHEVDGL,< -0.25
10,LVVA,< -0.25
11,LVVSLH,< -0.25
12,LVVVL,< -0.25
13,LVYP,< -0.25
14,LWAPWQQNIGDASQAPAHTS,< -0.25
15,LWEP,< -0.25
16,LWERL,< -0.25
17,LWGIGSGLYSGRMPYGTRIG,< -0.25
18,LWIFHACR,< -0.25
19,LWIRYPPLRVLMALTKIILV,< -0.25
20,LWISVNGAMGWVVRLYRSLF,< -0.25
21,LWKACGGASGVNYEMYRSSG,< -0.25
22,LWKTRR,< -0.25
23,LWLQPVRMWLTKTS,< -0.25
24,LWMPAQNH,< -0.25

row,Substance,growth estimate
1,LWN,< -0.25
2,LWPRHNRVDAKSSLLLVACV,< -0.25
3,LWPWEVVTKITFL,< -0.253
4,LWRSAVNCPHLRLYSYW,< -0.25
5,LWRYIWQLSAYPGETNLQYF,< -0.25
6,LWTPKCVCVTLVPGGGFTCS,< -0.25
7,LWVANQLATKLASTDLRTR,< -0.25
8,LWVRATNIRDA,< -0.25
9,LWVRSFSYFKRGRGSDWNAR,< -0.25
10,LWVSLNIR,< -0.25
11,LWYAIFNS,< -0.25
12,LWYTAELR,< -0.25
13,LYDAEFHIIDRVVPNLASPV,-0.246
14,LYETTLITFFGALVIGLHCV,< -0.25
15,LYFRYLSRAITQRIYESSAE,< -0.25
16,LYFYTKRAMGGMDRGGMDSD,< -0.25
17,LYGRNCCAAWLLTKRGTPGR,< -0.25
18,LYGVVCD,< -0.25
19,LYLSFKSC,< -0.25
20,LYM,< -0.25
21,LYNAVGQYRLM,< -0.25
22,LYNSEVLVLRTDI,< -0.25
23,LYNSRWFKMRFRRASVSECG,< -0.25
24,LYPASRSSAEPGLYKTSLFM,< -0.25

# Rewritten with tabs: part of the list above
row	Substance	growth estimate
7	LWVANQLATKLASTDLRTR	< -0.25
9	LWVRSFSYFKRGRGSDWNAR	< -0.25
13	LYDAEFHIIDRVVPNLASPV	-0.246
21	LYNAVGQYRLM	< -0.25
24	LYPASRSSAEPGLYKTSLFM	< -0.25

# Following part.

row,Substance,growth estimate
1,LYPNDSRHLLAIVISKTTNC,-0.0944
2,LYRCGRLKVLLSVGTGTHKV,< -0.25
3,LYRIDFASASSRA,< -0.25
4,LYRIRDTA,< -0.25
5,LYRNWGVKL,< -0.25
6,LYRSCFGFGS,< -0.25
7,LYRSCHARSRLYDMSRAITT,< -0.25
8,LYRTYQRRGYIWVSHNSCVY,< -0.25
9,LYS,-0.247 ± 0.0037
10,LYSRIHRVAHIMIGLSQLVS,< -0.25
11,LYTLLTIKDLPRGGSGQN,< -0.25
12,LYTSPCCRTYRSIQLIVPER,< -0.25
13,LYTTMGRHETELP,< -0.25
14,LYTVGKQLV,< -0.25
15,LYVWYRFGLWVCNLVCTLSR,< -0.25
16,LYWEGQTQSLQQESHPL,-0.237
17,LYWPAGRI,< -0.25
18,LYWVAEVKGPICE,< -0.25
19,MAAEHVSQSPLYT,< -0.25
20,MAAGPLSPALSRYSAAYNAR,< -0.25
21,MADLMRIRLGHGRQCDINEK,< -0.25
22,MAGASRVLMAVWGEKSLEPT,< -0.25
23,MAIDGLYVFSTTALFEGRAL,< -0.25
24,MAIWGYAIPRRRDTSCGQGR,-0.0764

# Part of the list above, bar-delimited.
row | Substance | growth estimate
12 | LYTSPCCRTYRSIQLIVPER | < -0.25
23 | MAIDGLYVFSTTALFEGRAL | < -0.25
